# Data taken from patent US20160281125A1, “ANTIMICROBIAL COMPOUND SUSCEPTIBILITY TEST” (priority 2013, published 2016).
# For at least one compound, name, drawing or mass did not settle the structure.
# Columns and labels:
# Assay in all cases: Carbapenem test, Triton fixation buffer and BacUni QuickFISH staining (Example 4)
# Assay type in all cases: cell-based
# [1] = system: E. coli strain 35218; conditions: FIG. 9; E. coli 35218; 10 μg/ml
# Protocol: (§1) An isolated colony from an overnight Tryptocase Soy Agar (TSA) plate for each bacteria was suspended in 1 ml Tryptocase Soy Broth (TSB) in a 5 ml BD polystyrene round bottom tube. TSB cultures were incubated at 37° C. for 1.5 hours shaking. […] of each stationary-phase culture were transferred to 2 ml Eppendorf microcentrifuge tubes containing 500 μl of Normal Saline (BD); or 500 μl Normal Saline with imipenem, ertapenem, or meropenem at a concentration of […], […], or 40 μg/ml (26.67 μg/ml final concentration). Tubes were inverted then incubated at 37° C. stagnant for thirty minutes. Then 10 μl from each tube was pipetted onto plain glass slide on a 55° C. heat block, followed by 25 μl fixation buffer (0.5% T×100, 100 mM Tris pH 9, 24% Ethanol, and 10 mM NaCl); slide is incubated until sample is dry. Ten μl of BacUni QuickFISH hybridization buffer was added to each slide followed by a 22×22 mm coverslip. The slide was then incubated at 55° C. for 15 minutes. The slides were viewed on a fluorescence microscope 60× oil immersion on Dual TxR/FITC. Images were taken with a 1 second exposure.
# (§2) The control fixation in this experiment has all the same components, except no Triton X-100. This was done to assess whether the selective lysis step is required to resolve a difference between susceptible and resistant bacteria.
# [2] = system: K. pneumoniae strain 13882; conditions: FIG. 10; K. pneumoniae 13882; 10 μg/ml
# Protocol: as §1, §2
# [3] = system: K. pneumoniae strain BAA2146 NDM+; conditions: FIG. 11, 10 μg/ml
# Protocol: as §1, §2
structure (smiles),measurement,setting,value
C[C@@H](O)[C@H]1C(=O)N2C(C(=O)O)=C(SCCN=CN)C[C@H]12 [imipenem],test result (susceptibility or resistance) by BacUni QuickFISH staining,[1],detect susceptibility
same,test result (susceptibility or resistance) by BacUni QuickFISH staining,[2],detect susceptibility
same,test result (susceptibility or resistance) by BacUni QuickFISH staining,[3],detect resistance
